Counter-ions that a name gives are not always drawn. Some of the results follow. Single values are uncertain here, since repeats match poorly.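 Cells: ReNCell VM human fetal ventral-midbrain neural progenitors, differentiated mitogen-free. Blinded raters compared doublecortin-stained (early neurons) or tyrosine hydroxylase-stained (dopaminergic neurons) images with untreated wells, where 0 means no change. After repeats and both raters were averaged, compounds scoring 2 or above became hits for retesting.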

The experiment concerns ReNCell VM. Kind of experiment: dopaminergic neuron differentiation score (TH+ cell fraction vs untreated, manual image score) (score (0 to 3)); higher = more TH+ dopaminergic neuron differentiation. Conditions: library: Tocriscreen; 2 uM; 4 weeks; BDNF 10 ng/ml + GDNF 10 ng/ml.
With `O=C1NC(=O)c2c1c1c3ccccc3[nH]c1c1[nH]c3ccccc3c21` [Arcyriaflavin A], the “dopaminergic neuron differentiation score” value was inactive: 0. For `c1cc(Cc2cnc[nH]2)ccn1` [Immethridine dihydrobromide], the “dopaminergic neuron differentiation score” value is inactive: 0. Under `FC(F)(F)c1cccc(C2=CCN(CCc3ccc4ccccc4c3)CC2)c1` [Xaliproden hydrochloride] stands inactive: 0; under `O=C(CCCN1CCC2(CC1)C(=O)N(Cc1cccc(F)c1)CN2c1ccccc1)c1ccc(F)cc1` [3'-Fluorobenzylspiperone maleate], inactive: 0; under `CN1Cc2ccccc2[C@@H]2c3cccc4[nH]cc(c34)C[C@H]21`, inactive: 0. Turning to `CN1C2CCC1CC(OC(c1ccccc1)c1ccc(Cl)cc1)C2` (stereo not drawn), the “dopaminergic neuron differentiation score” value was inactive: 0. Turning to `C#CCOC(=O)C1=CCCN(C)C1` [Arecaidine propargyl ester tosylate], the “dopaminergic neuron differentiation score” value is inactive: 0. On to `C[N+]1(C)CCc2cc3c(cc2C1C1OC(=O)c2c1ccc1c2OCO1)OCO3` (single isomer, unassigned; (-)) [(-)-Bicuculline methobromide], for which the “dopaminergic neuron differentiation score” value is inactive: 0.

The record behind these values is the supplement of paper PMC4635364.
